In publication doi:10.1101/2021.09.16.460691 one finds binding data, which are given here for six molecules.

Protein sequences, listed by entry. Tags and fused reporters are not part of them.
UniProt P60879: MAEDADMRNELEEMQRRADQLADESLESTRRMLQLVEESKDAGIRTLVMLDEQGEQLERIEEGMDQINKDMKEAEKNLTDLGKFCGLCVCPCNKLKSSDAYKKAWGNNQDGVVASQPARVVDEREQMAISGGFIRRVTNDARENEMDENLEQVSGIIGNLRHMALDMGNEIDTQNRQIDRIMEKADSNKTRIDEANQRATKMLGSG
UniProt Q9Z1G4: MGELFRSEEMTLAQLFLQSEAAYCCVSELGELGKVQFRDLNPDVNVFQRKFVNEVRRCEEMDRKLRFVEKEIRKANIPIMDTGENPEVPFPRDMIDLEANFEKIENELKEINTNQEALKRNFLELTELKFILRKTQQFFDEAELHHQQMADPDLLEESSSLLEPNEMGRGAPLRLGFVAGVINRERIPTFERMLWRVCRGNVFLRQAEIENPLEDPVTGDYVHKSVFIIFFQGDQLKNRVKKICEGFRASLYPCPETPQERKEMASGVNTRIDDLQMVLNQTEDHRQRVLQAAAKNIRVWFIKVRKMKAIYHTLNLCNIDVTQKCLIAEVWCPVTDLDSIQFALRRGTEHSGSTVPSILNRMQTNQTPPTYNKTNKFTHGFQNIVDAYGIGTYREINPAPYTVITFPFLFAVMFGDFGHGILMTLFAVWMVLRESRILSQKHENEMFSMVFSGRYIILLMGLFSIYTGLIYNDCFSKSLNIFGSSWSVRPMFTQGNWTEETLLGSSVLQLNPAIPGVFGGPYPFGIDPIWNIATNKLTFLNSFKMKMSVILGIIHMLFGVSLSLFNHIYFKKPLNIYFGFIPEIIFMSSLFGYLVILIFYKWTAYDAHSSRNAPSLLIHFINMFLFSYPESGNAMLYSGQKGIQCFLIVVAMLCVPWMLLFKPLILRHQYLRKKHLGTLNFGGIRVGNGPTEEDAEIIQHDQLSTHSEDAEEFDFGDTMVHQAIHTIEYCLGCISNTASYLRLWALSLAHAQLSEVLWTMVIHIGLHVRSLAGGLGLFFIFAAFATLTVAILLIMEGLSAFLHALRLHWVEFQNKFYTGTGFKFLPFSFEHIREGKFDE
UniProt P51863: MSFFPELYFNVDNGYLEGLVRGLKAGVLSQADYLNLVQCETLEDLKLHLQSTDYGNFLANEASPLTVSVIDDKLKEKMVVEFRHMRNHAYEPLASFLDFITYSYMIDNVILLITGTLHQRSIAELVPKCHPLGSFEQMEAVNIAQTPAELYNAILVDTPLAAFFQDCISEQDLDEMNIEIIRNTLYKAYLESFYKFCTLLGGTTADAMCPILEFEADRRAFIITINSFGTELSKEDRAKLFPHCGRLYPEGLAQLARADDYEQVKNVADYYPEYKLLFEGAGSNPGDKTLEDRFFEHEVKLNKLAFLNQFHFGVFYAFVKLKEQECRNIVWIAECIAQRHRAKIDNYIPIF
UniProt Q8BVE3: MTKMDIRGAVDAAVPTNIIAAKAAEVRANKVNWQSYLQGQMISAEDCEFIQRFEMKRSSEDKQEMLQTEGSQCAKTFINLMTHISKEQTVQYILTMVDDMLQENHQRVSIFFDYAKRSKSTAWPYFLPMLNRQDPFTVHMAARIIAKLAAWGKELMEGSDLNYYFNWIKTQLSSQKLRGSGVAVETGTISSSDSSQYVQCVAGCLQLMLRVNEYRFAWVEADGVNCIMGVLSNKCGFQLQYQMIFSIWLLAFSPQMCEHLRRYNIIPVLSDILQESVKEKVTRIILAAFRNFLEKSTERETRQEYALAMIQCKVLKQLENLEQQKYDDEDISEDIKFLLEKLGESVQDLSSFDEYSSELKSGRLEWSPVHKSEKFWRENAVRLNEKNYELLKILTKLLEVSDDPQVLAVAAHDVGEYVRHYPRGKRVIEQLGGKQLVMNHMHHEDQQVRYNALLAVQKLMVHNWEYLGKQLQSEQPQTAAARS
UniProt P61264: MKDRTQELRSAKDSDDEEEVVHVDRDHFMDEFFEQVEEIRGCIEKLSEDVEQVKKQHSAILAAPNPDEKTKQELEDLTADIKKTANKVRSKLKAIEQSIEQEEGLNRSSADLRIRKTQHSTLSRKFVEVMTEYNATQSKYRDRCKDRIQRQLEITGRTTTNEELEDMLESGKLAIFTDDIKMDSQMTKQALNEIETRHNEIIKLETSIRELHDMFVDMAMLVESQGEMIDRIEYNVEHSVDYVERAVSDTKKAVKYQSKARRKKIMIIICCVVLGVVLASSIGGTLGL

Where two headings read alike, the source gives them in different places. Results are given in words; binding and its absence hold for the method and conditions named. Binding seen in cells or lysates may run through a third protein. Some entries that bind do so weakly or less than the wild type. For some of these results: Tags and fused reporters may be left off the sequences shown.

Holding throughout (test): co-IP
For experiment [1], the target named is T1, FLAG-CLN3 (UniProt Q13286).
T1 sequence: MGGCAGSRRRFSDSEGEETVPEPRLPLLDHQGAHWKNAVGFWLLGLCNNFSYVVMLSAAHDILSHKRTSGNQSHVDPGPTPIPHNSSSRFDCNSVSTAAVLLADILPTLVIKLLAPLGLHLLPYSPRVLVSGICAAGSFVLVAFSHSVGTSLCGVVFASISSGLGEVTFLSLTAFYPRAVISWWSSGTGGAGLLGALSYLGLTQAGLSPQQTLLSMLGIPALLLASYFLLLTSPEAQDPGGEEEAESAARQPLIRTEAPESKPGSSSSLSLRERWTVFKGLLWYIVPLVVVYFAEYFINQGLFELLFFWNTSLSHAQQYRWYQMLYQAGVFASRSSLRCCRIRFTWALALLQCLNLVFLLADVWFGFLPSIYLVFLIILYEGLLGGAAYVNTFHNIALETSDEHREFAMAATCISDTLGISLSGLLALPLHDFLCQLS

The target in experiment [2] is Synaptosome associated protein 25 (mouse (endogenous in mouse cortex)) (UniProt P60879).
Experiment [3] deals with ATP6V0A1 (mouse (endogenous in mouse brain)) (UniProt Q9Z1G4).
Experiment [4] deals with ATPase H+ Transporting V0 subunit D1 (mouse (endogenous in Neuro2A and mouse brain)) (UniProt P51863).
In experiment [5] the target is ATPase H+ Transporting V1 Subunit H (mouse (endogenous in Neuro2A and mouse brain)) (UniProt Q8BVE3).
Experiment [6] deals with T2, Synaptobrevin homolog YKT6 (mouse (endogenous in Neuro2A and mouse brain)) (UniProt Q9CQW1).
T2 sequence: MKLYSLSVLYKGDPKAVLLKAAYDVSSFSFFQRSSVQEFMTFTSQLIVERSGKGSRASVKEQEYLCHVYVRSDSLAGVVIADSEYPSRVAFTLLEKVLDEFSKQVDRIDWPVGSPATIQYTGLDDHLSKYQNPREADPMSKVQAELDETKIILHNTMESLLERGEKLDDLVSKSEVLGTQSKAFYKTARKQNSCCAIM

Experiment [7] concerns the target Syntaxin 1B (mouse (endogenous in Neuro2A and mouse brain)) (UniProt P61264).
Experiment [8] has as its target T3, Syntaxin 7 (mouse (endogenous in Neuro2A and mouse brain)) (UniProt O70439).
T3 sequence: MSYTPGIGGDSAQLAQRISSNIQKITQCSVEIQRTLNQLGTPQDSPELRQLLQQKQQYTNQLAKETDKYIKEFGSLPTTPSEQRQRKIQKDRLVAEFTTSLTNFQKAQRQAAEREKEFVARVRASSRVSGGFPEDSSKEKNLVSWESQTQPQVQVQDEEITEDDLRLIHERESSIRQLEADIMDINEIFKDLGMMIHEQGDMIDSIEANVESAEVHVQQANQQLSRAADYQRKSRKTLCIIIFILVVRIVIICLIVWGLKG

The target of experiment [9] is T4, VTI1B (mouse (endogenous in Neuro2A and mouse brain)) (UniProt O88384).
T4 sequence: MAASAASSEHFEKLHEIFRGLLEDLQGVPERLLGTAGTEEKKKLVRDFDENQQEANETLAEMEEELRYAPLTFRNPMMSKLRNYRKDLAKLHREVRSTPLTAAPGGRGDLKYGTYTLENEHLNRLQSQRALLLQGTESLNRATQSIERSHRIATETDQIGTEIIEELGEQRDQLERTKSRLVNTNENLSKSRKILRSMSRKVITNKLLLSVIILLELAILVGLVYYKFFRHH

The target of experiment [10] is T1, FLAG-CLN3. This is another data set of the same source.

Syntaxin 1B (from UniProt P61264 1-288): the binding entry (with FLAG-CLN3 [1]; in experiment [2]) was “binds” in each case.

B1: hCLN6 (protein, UniProt Q9NWW5 1-311)
chain: MEATRRRQHLGATGGPGAQLGASFLQARHGSVSADEAARTAPFHLDLWFYFTLQNWVLDFGRPIAMLVFPLEWFPLNKPSVGDYFHMAYNVITPFLLLKLIERSPRTLPRSITYVSIIIFIMGASIHLVGDSVNHRLLFSGYQHHLSVRENPIIKNLKPETLIDSFELLYYYDEYLGHCMWYIPFFLILFMYFSGCFTASKAESLIPGPALLLVAPSGLYYWYLVTEGQIFILFIFTFFAMLALVLHQKRKRLFLDSNGLFLFSSFALTLLLVALWVAWLWNDPVLRKKYPGVIYVPEPWAFYTLHVSSRH
On to B1, for which the binding entry in [3], in [4], in experiment [5], in [6], in experiment [7] and in [8] was “binds” throughout. Also, the binding entry in experiment [9] was “binds”.

B2: Synaptobrevin homolog YKT6 (protein, UniProt Q9CQW1 1-198)
chain: T2 sequence
On to B2, for which the binding result with FLAG-CLN3 [10] was “binds”.

B3: TBC1D5 (protein, UniProt Q80XQ2 1-815)
chain: MYKSVSETRHPLQSEEQEVGIDPLFSYSNKTRGDLSQNGRGSNSTLDTEGTFNSYMKEWEELFVNNNYLATVRQKGINGQLRSSRFRSICWKLFLCVLPQDKSQWISKIKELRAWYSSIKEIHITNPRKAAGQQDLMINNPLSQDEGSLWNKFFQDKELRSMIEQDVKRTFPEMQFFQQENVRKILTDVLFCYARENEQLLYKQGMHELLAPIIFTLHCDHQAFLHASESAQPSEEMKTLLNPEYLEHDAYAMFSQLMETAEPWFSTFEHDGQKGKETLMAPIPFARPQDLGPTVAIVTKVNQIQDHLLKKHDIELYMHLNRLEIAPQIYGLRWVRLLFGREFPLQDLLVVWDALFADSLNLSLVDYVFTAMLLYIRDALISSNYQTCLGLLMHYPIIGDIHSLILKALFLRDPKRNPRPATYQFHPNLDYYKARGADLMNKSRTNARGAPLNIHKVSNSLINFGRKLISPASAPGSMGGPVPGNNSSSSFSAAIPTRTSTEAPRHHLLQQQQQQQHQQQQQQQPQQQQQQHQQQQQQQRLMKSESMPVQLNKGQSSKTISSSPSIESLPGGREFTGSPPPSATKKDSFFSNIARSRSHSKTMGRKESEEELEAQISFLQGQLNDLDAMCKYCAKVMDMHLVNIQDVVLQENLEKEDQILVSLAGLKQIKDILKGSLRFNQSQLEAGENEQITIADDHYCSSGQDQGSQVPRAAKQASSEMPGCTGGTTPDDFILVSKEDEGHRARGAFSGQAQPLLTLRSTSGKSRAPACSPLLFSDPLMGPASASASSSNPSSSPDDDSSKESGFTIVSPLDI
B3: the binding entry with FLAG-CLN3 [10] is “binds”.

B4: TBC1D15 (protein, UniProt Q9CXF4 1-671)
chain: MAAAGVVSGKIIYEQEGVYIHSSCGKANDQDSLISGILRVLEKDAEVIVDWRPLDDALDSSSILCAGKDSSSVVEWTQAPKERAHRGSDQQSSYEAEWDMVTTVSFKKKPHTNGDAPGHRNGKSKWSFLFSLADLKSVKQSKEGMGWSYLVFCLKDDVMLPALHFHQGDSKLLIESLEKYVVLCESPQDSRTLLVNCQNKSLSQSFENLLDEPAYGLIQKIKKDPYTATMVGFSKVTNYIFDSLRGSDPSTHQRPPSEMADFLSDAIPGLKINQQEEPGFEVITRIDLGERPVVQRREPVSLEEWNKSLDPEGRLVAVESMKQKIFRGGLSHSLRKQAWKFLLGYFPWDSTKEERTQLQKQKTDEYFRMKLQWKSVSEAQEKRNSRLRDYRSLIEKDVNRTDRTNKFYEGQDNPGLILLHDILMTYCMYDFDLGYVQGMSDLLSPLLYVMENEVDAFWCFASYMDQMHQNFEEQMQGMKTQLIQLSTLLRLLDSGFCSYLESQDSGYLYFCFRWLLIRFKREFSFLDILRLWEVMWTELPCKNFHLLLCCAILESEKQQIMAKHYGFNEILKHINELSMKIDVEDILCKAEAISLQMAQCKELPQAVCEILGLQDSEITTPDSDTDENVGSPCPVSAFPSSTLPILAASEAKDDSPTQTLASPNACRLTPA
As to B4, in the experiment with FLAG-CLN3 [10], the binding entry is “binds”.

B5: VTI1B (protein, UniProt O88384 1-232)
chain: T4 sequence
Consider B5, for which, in the experiment with FLAG-CLN3 [10], the binding entry is listed as “binds”.
